The subject of this test is HEK293A TEAD-LUC reporter. Briefly: TEAD-luciferase reporter activity (YAP activation), robust Z score vs plate; higher = stronger YAP/TEAD activation. As to conditions: 24 h. On the technique in general: In a reporter assay the amount or activity of a reporter protein is the signal.

Each structure is given as a SMILES string. The list shows a part of the results. Single values are uncertain here, since repeats match poorly.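 Human kidney-derived cells stably carry a construct in which eight TEAD-binding elements drive luciferase, measured by luminescence in a drug-repurposing library screen. A hit is any compound whose signal exceeds the plate mean by more than five robust Z scores.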

These results are taken from the supplement of paper PMC10735217.

In the case of `O[C@@H](c1cc(C(F)(F)F)nc2c(C(F)(F)F)cccc12)[C@H]1CCCCN1`, the TEAD-luciferase reporter activity by setting is: (compound concentration: 200 nM) inactive: 1.9; (compound concentration: 10 uM) inactive: 0.0147.

With `O[C@@H](c1cc(C(F)(F)F)nc2c(C(F)(F)F)cccc12)[C@H]1CCCCN1` [(+)-mefloquine], the TEAD-luciferase reporter activity (compound concentration: 2 uM) was inactive: -0.0587.

As for `Cc1ccc(S(=O)(=O)NC(=O)NN2CC3CCCC3C2)cc1` (configuration not stated) [gliclazide], the TEAD-luciferase reporter activity (compound concentration: 200 nM) is inactive: -0.646, the TEAD-luciferase reporter activity (compound concentration: 2 uM) is inactive: -1.35 and the TEAD-luciferase reporter activity (compound concentration: 10 uM) is inactive: 0.494.

Regarding `N=C(N)c1ccc(N2C[C@@H](CN3CCN(CC(=O)O)CC3)OC2=O)cc1`, the TEAD-luciferase reporter activity reads like this: (compound concentration: 200 nM) inactive: -0.315; (compound concentration: 2 uM) inactive: -2.08; (compound concentration: 10 uM) inactive: 1.56.

As to `CC(=O)S[C@@H]1CC2=CC(=O)CC[C@]2(C)[C@H]2CC[C@@]3(C)[C@@H](CC[C@@]34CCC(=O)O4)[C@H]12` [spironolactone], the TEAD-luciferase reporter activity (compound concentration: 2 uM) is inactive: 0.223.

Turning to `CC(=O)S[C@@H]1CC2=CC(=O)CC[C@]2(C)[C@H]2CC[C@@]3(C)[C@@H](CC[C@@]34CCC(=O)O4)[C@H]12` [Spironolactone], the TEAD-luciferase reporter activity was inactive: -1.33 (compound concentration: 200 nM) and inactive: 2.93 (compound concentration: 10 uM).

As to `CCN1CCN(c2cc3c(cc2F)c(=O)c(C(=O)O)cn3C2CC2)CC1` [Enrofloxacin], the TEAD-luciferase reporter activity (compound concentration: 2 uM) is inactive: -0.739.

On to `CCN1CCN(c2cc3c(cc2F)c(=O)c(C(=O)O)cn3C2CC2)CC1`, for which the TEAD-luciferase reporter activity runs as follows: (compound concentration: 200 nM) inactive: -1.42; (compound concentration: 10 uM) inactive: -1.13.

As for `Oc1cccc(O)c1` [Resorcinol], the TEAD-luciferase reporter activity (compound concentration: 2 uM) was inactive: -0.538.

`Oc1cccc(O)c1`: the TEAD-luciferase reporter activity was inactive: -0.653 (compound concentration: 200 nM), inactive: -0.59 (compound concentration: 2 uM) and inactive: -0.419 (compound concentration: 10 uM).

For `CCc1ccc(C(=O)COc2ccc(Cc3sc(O)nc3O)cc2)nc1`, the TEAD-luciferase reporter activity is inactive: -0.171 (compound concentration: 200 nM), inactive: -1.08 (compound concentration: 2 uM) and inactive: 1.19 (compound concentration: 10 uM).

Regarding `Cc1nc(-c2ccc(C(F)(F)F)cc2)sc1C(=O)NCc1ccc(OC(C)(C)C(=O)O)cc1`, the TEAD-luciferase reporter activity is inactive: -2.59 (compound concentration: 200 nM), inactive: -1.09 (compound concentration: 2 uM) and inactive: 2.94 (compound concentration: 10 uM).

For the compound `CC(C)(CO)[C@@H](O)C(=O)NCCCO` [dexpanthenol], under “compound concentration: 2 uM”, the TEAD-luciferase reporter activity is inactive: 0.944.

`CC(C)(CO)[C@@H](O)C(=O)NCCCO`: the TEAD-luciferase reporter activity (compound concentration: 200 nM) was inactive: -0.772 and the TEAD-luciferase reporter activity (compound concentration: 10 uM) was inactive: -1.05.

For `CC(C)N1CC(O)C2=C/C(=N/NC(N)=O)C(=O)C=C21` (configuration not stated) [iprazochrome], the TEAD-luciferase reporter activity reads like this: (compound concentration: 200 nM) inactive: -1.25; (compound concentration: 2 uM) inactive: 0.542; (compound concentration: 10 uM) inactive: 3.29.

Regarding `C[C@]12C=CC(=O)C=C1CC[C@@H]1[C@@H]2[C@@H](O)C[C@@]2(C)[C@H]1CC[C@]2(O)C(=O)CO` [Prednisolone], the TEAD-luciferase reporter activity runs as follows: (compound concentration: 200 nM) inactive: -0.000567; (compound concentration: 2 uM) inactive: 3.02; (compound concentration: 10 uM) inactive: 2.41.

With `O=C1c2ccccc2C(=O)c2sc(-c3ccco3)nc21`, the TEAD-luciferase reporter activity by setting is: (compound concentration: 200 nM) inactive: 0.952; (compound concentration: 2 uM) inactive: -1.17; (compound concentration: 10 uM) inactive: -0.8.

Consider `CS(=O)(=O)c1ccc(C2=C(c3ccccc3)C(=O)OC2)cc1` [rofecoxib], for which, for the setting “compound concentration: 2 uM”, the TEAD-luciferase reporter activity was inactive: -0.579.

As for `CS(=O)(=O)c1ccc(C2=C(c3ccccc3)C(=O)OC2)cc1`, the TEAD-luciferase reporter activity is inactive: -0.321 (compound concentration: 200 nM) and inactive: -0.401 (compound concentration: 10 uM).

As for `COC(=O)C1C(=O)C=C(Nc2ccc(Cl)cc2)CC1C` (configuration not stated), the TEAD-luciferase reporter activity runs as follows: (compound concentration: 200 nM) inactive: -0.468; (compound concentration: 2 uM) inactive: 0.407; (compound concentration: 10 uM) inactive: 1.91.

As for `Cc1cc(C(=O)O)ccc1COc1cc2c(cc1N(CC(C)C)S(=O)(=O)c1nccs1)CCC2`, the TEAD-luciferase reporter activity by setting is: (compound concentration: 200 nM) inactive: -1.93; (compound concentration: 2 uM) inactive: -1.13; (compound concentration: 10 uM) inactive: -1.61.

Regarding `IC(I)I`, the TEAD-luciferase reporter activity was inactive: -1.59 (compound concentration: 200 nM), inactive: -0.717 (compound concentration: 2 uM) and inactive: -0.918 (compound concentration: 10 uM).

Consider `CC1=N[C@H](C(=O)O)CCN1` [Ectoine], for which the TEAD-luciferase reporter activity (compound concentration: 200 nM) was inactive: -0.736 and the TEAD-luciferase reporter activity (compound concentration: 10 uM) was inactive: 2.55.

As for `CCC1(CC(=O)O)OCCc2c1[nH]c1ccccc21` (configuration not stated), the TEAD-luciferase reporter activity (compound concentration: 200 nM) was inactive: -1.45, the TEAD-luciferase reporter activity (compound concentration: 2 uM) is inactive: -0.91 and the TEAD-luciferase reporter activity (compound concentration: 10 uM) was inactive: -1.28.

`O=NN(CCCl)C(=O)NCCSSCCNC(=O)N(CCCl)N=O` [ditiomustine]: the TEAD-luciferase reporter activity was inactive: -0.192 (compound concentration: 200 nM), inactive: -0.233 (compound concentration: 2 uM) and active: 8.79 (compound concentration: 10 uM).

For the compound `c1ccc(C(CCNc2ccncc2)c2ccccc2)cc1` [milverine], the TEAD-luciferase reporter activity is, setting by setting: (compound concentration: 200 nM) inactive: -1.55; (compound concentration: 2 uM) inactive: 0.701; (compound concentration: 10 uM) inactive: 0.891.

For the compound `O=C(OCC(O)CO)c1ccccc1Nc1ccnc2cc(Cl)ccc12` (configuration not stated) [glafenine], the TEAD-luciferase reporter activity (compound concentration: 2 uM) was inactive: -0.689.

On to `O=C(OCC(O)CO)c1ccccc1Nc1ccnc2cc(Cl)ccc12` (configuration not stated) [glafenine, Sopar], for which the TEAD-luciferase reporter activity was inactive: -0.87 (compound concentration: 200 nM) and inactive: -1.56 (compound concentration: 10 uM).

Take `COc1cc2c(cc1OC)CN(CCc1ccc(NC(=O)c3cccc(/C=c4\[nH]c(=O)/c(=C/c5ccccc5)n(C)c4=O)c3)cc1)CC2`: the TEAD-luciferase reporter activity (compound concentration: 200 nM) is inactive: -2.12, the TEAD-luciferase reporter activity (compound concentration: 2 uM) was inactive: -1.44 and the TEAD-luciferase reporter activity (compound concentration: 10 uM) is inactive: 2.64.

Turning to `CN(C)/N=N/c1ccc(C(=O)O)cc1`, the TEAD-luciferase reporter activity was inactive: 2.01 (compound concentration: 200 nM), inactive: -0.134 (compound concentration: 2 uM) and inactive: -0.598 (compound concentration: 10 uM).

As for `COc1ccc(-c2nc(-c3cc(C(F)(F)F)cc(C(F)(F)F)c3)n(Cc3ccc(C(N)=O)cc3)c2-c2ccc(OC)cc2)cc1` [apoptozole], the TEAD-luciferase reporter activity reads like this: (compound concentration: 200 nM) inactive: -0.878; (compound concentration: 2 uM) inactive: 0.0105; (compound concentration: 10 uM) inactive: -0.162.
